Measurements published in PMC5446187, “USP9X counteracts differential ubiquitination of NPHP5 by MARCH7 and BBS11 to regulate ciliogenesis” (PLoS Genetics, 2017).
No constants are given. Whether binding was seen depends on the method and setting. In cells and extracts the contact can be indirect. Some results given as binding are weak or reduced against the parent protein; the word gives no strength. For some of these results: Sequences can lack the tags named with a protein. Values belong to the molecule of their own block, whether it stands above or below them.

The chains behind the UniProt entries cited, without tags or fusion partners.
UniProt Q93008: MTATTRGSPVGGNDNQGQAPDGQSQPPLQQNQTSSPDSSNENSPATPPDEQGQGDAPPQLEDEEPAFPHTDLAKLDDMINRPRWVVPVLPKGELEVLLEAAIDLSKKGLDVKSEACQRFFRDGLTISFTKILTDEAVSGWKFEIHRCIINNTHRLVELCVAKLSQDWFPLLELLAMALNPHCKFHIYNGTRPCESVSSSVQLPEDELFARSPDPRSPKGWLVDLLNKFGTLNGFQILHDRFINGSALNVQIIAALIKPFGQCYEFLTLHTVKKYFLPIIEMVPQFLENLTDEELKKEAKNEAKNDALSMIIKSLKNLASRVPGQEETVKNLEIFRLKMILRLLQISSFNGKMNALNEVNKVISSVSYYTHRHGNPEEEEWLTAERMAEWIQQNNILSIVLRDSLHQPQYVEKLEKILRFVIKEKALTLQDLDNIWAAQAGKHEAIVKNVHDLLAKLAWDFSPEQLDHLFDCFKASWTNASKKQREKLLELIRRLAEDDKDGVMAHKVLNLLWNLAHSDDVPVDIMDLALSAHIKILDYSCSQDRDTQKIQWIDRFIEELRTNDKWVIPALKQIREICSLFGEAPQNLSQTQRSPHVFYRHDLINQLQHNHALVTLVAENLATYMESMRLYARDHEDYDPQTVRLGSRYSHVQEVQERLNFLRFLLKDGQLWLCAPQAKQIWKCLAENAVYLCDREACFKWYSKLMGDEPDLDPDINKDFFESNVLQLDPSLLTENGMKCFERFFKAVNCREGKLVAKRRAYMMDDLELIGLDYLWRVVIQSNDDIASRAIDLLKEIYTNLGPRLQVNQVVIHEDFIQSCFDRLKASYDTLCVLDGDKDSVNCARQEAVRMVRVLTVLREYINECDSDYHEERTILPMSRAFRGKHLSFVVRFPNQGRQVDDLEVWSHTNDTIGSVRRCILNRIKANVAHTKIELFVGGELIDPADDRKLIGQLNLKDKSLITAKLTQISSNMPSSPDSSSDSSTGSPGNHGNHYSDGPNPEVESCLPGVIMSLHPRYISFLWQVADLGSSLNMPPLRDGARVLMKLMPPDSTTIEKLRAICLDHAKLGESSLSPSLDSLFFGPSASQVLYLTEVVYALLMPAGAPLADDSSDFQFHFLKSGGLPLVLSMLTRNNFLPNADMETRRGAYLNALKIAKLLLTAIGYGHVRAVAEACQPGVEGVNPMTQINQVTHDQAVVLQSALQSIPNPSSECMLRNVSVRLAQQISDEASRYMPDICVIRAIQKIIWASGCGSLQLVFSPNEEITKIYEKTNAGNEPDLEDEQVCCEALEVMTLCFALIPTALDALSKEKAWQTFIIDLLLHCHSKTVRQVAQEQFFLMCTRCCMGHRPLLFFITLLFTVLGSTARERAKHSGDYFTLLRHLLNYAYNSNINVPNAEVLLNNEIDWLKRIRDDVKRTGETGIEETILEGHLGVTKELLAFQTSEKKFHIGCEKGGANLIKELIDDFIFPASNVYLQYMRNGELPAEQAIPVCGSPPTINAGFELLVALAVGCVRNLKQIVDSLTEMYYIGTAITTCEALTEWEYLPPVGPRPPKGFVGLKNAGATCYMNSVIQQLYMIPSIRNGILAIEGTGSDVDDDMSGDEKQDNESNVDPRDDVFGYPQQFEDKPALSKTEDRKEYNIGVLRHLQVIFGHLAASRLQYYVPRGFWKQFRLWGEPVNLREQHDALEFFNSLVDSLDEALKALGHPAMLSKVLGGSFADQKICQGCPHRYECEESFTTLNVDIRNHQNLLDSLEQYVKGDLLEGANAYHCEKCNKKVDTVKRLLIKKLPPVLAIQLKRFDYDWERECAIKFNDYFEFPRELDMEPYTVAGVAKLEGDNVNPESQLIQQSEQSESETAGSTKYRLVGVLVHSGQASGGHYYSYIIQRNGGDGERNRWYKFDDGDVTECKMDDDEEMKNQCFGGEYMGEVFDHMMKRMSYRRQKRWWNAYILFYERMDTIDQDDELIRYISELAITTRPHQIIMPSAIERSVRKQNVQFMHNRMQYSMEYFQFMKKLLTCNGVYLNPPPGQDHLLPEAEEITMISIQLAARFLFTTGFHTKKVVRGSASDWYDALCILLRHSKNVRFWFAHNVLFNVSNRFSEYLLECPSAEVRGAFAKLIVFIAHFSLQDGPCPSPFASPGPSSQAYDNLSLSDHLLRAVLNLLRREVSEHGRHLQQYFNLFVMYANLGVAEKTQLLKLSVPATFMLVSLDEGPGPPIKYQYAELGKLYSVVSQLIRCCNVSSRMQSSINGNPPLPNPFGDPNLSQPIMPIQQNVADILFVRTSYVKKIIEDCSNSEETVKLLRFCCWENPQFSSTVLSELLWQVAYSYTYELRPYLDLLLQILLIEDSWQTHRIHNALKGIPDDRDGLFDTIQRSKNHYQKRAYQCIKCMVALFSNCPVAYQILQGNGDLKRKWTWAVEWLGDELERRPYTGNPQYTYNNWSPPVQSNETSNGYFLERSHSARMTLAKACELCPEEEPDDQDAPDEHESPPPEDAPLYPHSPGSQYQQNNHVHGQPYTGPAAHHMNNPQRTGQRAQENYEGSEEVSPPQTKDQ
UniProt Q13049: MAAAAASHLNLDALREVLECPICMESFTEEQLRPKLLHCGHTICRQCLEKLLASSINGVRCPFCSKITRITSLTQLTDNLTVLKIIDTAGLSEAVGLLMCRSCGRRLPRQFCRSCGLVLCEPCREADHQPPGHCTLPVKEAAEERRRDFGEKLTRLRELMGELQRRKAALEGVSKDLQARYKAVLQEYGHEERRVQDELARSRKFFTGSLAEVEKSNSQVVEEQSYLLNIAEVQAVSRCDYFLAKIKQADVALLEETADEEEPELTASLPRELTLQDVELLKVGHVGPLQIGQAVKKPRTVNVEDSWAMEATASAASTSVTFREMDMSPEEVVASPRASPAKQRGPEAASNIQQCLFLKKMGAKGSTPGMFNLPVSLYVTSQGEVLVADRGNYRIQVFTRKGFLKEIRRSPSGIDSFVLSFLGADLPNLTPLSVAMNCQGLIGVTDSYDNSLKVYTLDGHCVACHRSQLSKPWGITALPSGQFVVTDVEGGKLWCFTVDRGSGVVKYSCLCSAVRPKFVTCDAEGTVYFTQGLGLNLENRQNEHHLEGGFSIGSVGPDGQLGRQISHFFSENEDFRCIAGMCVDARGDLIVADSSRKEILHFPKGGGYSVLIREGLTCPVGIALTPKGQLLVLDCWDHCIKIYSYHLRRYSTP

Assays:
[1] = target: T1, Flag-NPHP5 (nephrocystin-5), full length 1-598 (UniProt Q15051); test: co-IP; anti-Flag immunoprecipitation from lysates of HEK293 cells expressing Flag-NPHP5 or its fragments (alone or with GFP-tagged partner), Western blot
T1 sequence: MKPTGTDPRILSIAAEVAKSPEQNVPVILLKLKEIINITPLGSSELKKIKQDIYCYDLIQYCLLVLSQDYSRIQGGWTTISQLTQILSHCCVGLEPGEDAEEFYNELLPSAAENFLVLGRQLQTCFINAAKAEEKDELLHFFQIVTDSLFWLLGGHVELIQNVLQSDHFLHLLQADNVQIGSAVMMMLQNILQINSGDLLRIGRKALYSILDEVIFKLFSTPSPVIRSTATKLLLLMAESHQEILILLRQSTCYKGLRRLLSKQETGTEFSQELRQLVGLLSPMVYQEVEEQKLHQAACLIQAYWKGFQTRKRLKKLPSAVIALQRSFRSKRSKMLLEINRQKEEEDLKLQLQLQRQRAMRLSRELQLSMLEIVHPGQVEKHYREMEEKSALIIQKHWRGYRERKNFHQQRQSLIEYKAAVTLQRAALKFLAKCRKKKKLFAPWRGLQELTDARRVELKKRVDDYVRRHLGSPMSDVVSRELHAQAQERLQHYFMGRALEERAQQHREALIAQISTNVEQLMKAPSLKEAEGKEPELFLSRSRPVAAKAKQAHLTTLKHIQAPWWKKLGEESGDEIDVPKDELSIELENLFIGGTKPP

Flag-NPHP5 20-598 = target: T2, Flag-NPHP5 20-598 (UniProt Q15051); test: as above
T2 sequence: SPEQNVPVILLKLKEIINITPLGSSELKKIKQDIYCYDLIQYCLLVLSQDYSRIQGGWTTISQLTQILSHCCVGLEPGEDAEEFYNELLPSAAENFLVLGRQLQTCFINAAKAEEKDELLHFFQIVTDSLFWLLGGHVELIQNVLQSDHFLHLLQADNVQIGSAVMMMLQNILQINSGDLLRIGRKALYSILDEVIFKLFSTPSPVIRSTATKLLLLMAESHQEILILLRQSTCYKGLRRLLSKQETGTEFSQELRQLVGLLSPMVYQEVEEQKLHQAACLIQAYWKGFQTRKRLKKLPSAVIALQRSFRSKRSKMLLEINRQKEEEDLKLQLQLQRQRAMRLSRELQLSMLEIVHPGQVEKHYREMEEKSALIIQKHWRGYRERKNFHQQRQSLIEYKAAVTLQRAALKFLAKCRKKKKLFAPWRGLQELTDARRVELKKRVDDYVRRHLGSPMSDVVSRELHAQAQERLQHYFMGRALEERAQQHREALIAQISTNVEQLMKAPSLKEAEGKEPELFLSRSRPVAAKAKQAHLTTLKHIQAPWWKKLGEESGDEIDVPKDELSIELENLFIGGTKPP

[2] = target: T1, Flag-NPHP5 (nephrocystin-5), full length 1-598; test: condition: only with 1% SDS (denaturing conditions); co-IP; anti-Flag immunoprecipitation of Flag-NPHP5 from HEK293 lysate under denaturing conditions with 1% SDS, Western blot
[3] = target: T3, NPHP5 (nephrocystin-5), endogenous (human (endogenous in HEK293, U2OS, RPE-1)) (UniProt Q15051); test: co-IP; endogenous proteins; anti-NPHP5 (IRCM1, C-terminus) or anti-USP9X immunoprecipitation from HEK293, U2OS and RPE-1 lysates, asynchronous or synchronised in cell cycle phases (strong in G0, G1, S; substantially weaker in G2, M), Western blot
T3 sequence: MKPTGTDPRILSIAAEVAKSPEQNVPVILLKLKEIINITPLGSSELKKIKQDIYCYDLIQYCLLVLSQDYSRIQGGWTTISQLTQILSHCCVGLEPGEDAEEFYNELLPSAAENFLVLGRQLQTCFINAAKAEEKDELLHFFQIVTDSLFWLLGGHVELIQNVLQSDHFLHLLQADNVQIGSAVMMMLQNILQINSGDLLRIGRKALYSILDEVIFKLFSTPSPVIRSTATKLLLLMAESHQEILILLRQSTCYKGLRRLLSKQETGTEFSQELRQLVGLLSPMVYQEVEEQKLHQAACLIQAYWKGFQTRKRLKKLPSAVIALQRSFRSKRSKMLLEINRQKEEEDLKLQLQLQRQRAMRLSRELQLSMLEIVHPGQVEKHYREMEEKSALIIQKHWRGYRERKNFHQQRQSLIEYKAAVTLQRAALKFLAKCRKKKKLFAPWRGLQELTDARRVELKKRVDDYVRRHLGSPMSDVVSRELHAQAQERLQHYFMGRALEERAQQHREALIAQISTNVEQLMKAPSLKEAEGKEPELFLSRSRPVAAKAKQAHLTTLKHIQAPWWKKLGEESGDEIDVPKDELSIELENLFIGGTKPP

Myc-MARCH7 wild type = target: T4, Myc-MARCH7 wild type (UniProt Q9H992); test: co-IP; anti-Myc immunoprecipitation from lysates of HEK293 cells co-expressing Myc-MARCH7 and Flag-NPHP5, with control or USP9X siRNA (stronger upon USP9X depletion), Western blot
T4 sequence: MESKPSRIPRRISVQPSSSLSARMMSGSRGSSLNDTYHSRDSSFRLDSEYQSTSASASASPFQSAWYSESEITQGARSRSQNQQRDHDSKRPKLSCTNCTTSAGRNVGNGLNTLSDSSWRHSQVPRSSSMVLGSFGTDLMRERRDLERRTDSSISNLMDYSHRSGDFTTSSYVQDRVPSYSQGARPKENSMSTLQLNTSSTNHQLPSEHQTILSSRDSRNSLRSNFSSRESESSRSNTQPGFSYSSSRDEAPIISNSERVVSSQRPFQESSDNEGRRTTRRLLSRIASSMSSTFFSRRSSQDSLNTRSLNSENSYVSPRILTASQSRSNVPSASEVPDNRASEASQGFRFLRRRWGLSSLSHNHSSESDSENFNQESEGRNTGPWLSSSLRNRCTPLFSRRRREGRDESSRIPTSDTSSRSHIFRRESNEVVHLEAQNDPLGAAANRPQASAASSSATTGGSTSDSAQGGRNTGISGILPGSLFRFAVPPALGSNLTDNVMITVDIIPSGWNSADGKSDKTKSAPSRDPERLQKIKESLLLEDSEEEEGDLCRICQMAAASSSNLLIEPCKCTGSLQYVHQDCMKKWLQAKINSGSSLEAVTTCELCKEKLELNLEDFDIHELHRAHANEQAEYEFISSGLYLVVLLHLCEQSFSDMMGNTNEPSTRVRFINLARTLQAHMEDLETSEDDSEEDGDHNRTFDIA

[4] = target: USP9X/FAM, endogenous (human (endogenous in HEK293, U2OS, RPE-1)) (UniProt Q93008); test: co-IP; endogenous proteins; anti-NPHP5 (IRCM1, C-terminus) or anti-USP9X immunoprecipitation from HEK293, U2OS and RPE-1 lysates, asynchronous or synchronised in cell cycle phases (strong in G0, G1, S; substantially weaker in G2, M), Western blot

B1: Flag-NPHP5 (nephrocystin-5), full length 1-598 (natural protein, UniProt Q15051 1-598, looked up)
chain: MKPTGTDPRILSIAAEVAKSPEQNVPVILLKLKEIINITPLGSSELKKIKQDIYCYDLIQYCLLVLSQDYSRIQGGWTTISQLTQILSHCCVGLEPGEDAEEFYNELLPSAAENFLVLGRQLQTCFINAAKAEEKDELLHFFQIVTDSLFWLLGGHVELIQNVLQSDHFLHLLQADNVQIGSAVMMMLQNILQINSGDLLRIGRKALYSILDEVIFKLFSTPSPVIRSTATKLLLLMAESHQEILILLRQSTCYKGLRRLLSKQETGTEFSQELRQLVGLLSPMVYQEVEEQKLHQAACLIQAYWKGFQTRKRLKKLPSAVIALQRSFRSKRSKMLLEINRQKEEEDLKLQLQLQRQRAMRLSRELQLSMLEIVHPGQVEKHYREMEEKSALIIQKHWRGYRERKNFHQQRQSLIEYKAAVTLQRAALKFLAKCRKKKKLFAPWRGLQELTDARRVELKKRVDDYVRRHLGSPMSDVVSRELHAQAQERLQHYFMGRALEERAQQHREALIAQISTNVEQLMKAPSLKEAEGKEPELFLSRSRPVAAKAKQAHLTTLKHIQAPWWKKLGEESGDEIDVPKDELSIELENLFIGGTKPP
notes: also called IQCB1; source: HEK293, transfected, in lysate; also purified from HEK293 (anti-Flag immunoprecipitation, 500 mM NaCl washes, eluted with Flag peptide)
binding (Myc-MARCH7 wild type): binds

B2: NPHP5 (nephrocystin-5), endogenous (protein, UniProt Q15051 1-598)
chain: MKPTGTDPRILSIAAEVAKSPEQNVPVILLKLKEIINITPLGSSELKKIKQDIYCYDLIQYCLLVLSQDYSRIQGGWTTISQLTQILSHCCVGLEPGEDAEEFYNELLPSAAENFLVLGRQLQTCFINAAKAEEKDELLHFFQIVTDSLFWLLGGHVELIQNVLQSDHFLHLLQADNVQIGSAVMMMLQNILQINSGDLLRIGRKALYSILDEVIFKLFSTPSPVIRSTATKLLLLMAESHQEILILLRQSTCYKGLRRLLSKQETGTEFSQELRQLVGLLSPMVYQEVEEQKLHQAACLIQAYWKGFQTRKRLKKLPSAVIALQRSFRSKRSKMLLEINRQKEEEDLKLQLQLQRQRAMRLSRELQLSMLEIVHPGQVEKHYREMEEKSALIIQKHWRGYRERKNFHQQRQSLIEYKAAVTLQRAALKFLAKCRKKKKLFAPWRGLQELTDARRVELKKRVDDYVRRHLGSPMSDVVSRELHAQAQERLQHYFMGRALEERAQQHREALIAQISTNVEQLMKAPSLKEAEGKEPELFLSRSRPVAAKAKQAHLTTLKHIQAPWWKKLGEESGDEIDVPKDELSIELENLFIGGTKPP
binding [4]: binds

The remaining lines, values ahead:

binding [1]: binds
Molecule: GFP-BBS11 wild type (human) (from UniProt Q13049 1-653) (enzyme)

binding [1]: binds | binding (Flag-NPHP5 20-598): no binding | binding [2]: no binding | binding [3]: binds
Molecule: USP9X/FAM, endogenous (from UniProt Q93008 1-2554) (enzyme)
